# Measurements as given in PubChem BioAssay AID1487 (National Center for Advancing Translational Sciences (NCATS), 2009).
# The list shows a part of the results. Further columns of the screen follow, without active or inactive calls. Compounds called inactive in the main read-out are mostly missing here. Potencies come from curve fits of mixed quality, noted in brackets.
# Assay: qHTS Assay for Modulators of Lamin A Splicing
# Conditions: HeLa LMNA splicing GFP/RFP minigene ratio, 48 h
# Outline: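 Read-out is the ratio of GFP to DsRed2 object intensity, acquired by 488 nm laser-scanning cytometry on HeLa lamin A-EGFP minigene reporter cells. Compound incubation 48 hrs at 37 °C in Opti-MEM with 2% FBS; DMSO 0.5% final.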
# [1] = measured here: RFP viability control channel
# [2] = measured here: GFP splicing reporter channel
Structure (SMILES),AC50 [1],AC50 [2]
COc1ccc(OCC(=O)OCc2cc(=O)n3nc(C4CC4)sc3n2)cc1,"0.282 µM [falling, full curve, poor fit]",
Cc1cccc(C)c1NC(=O)CN(C)CC(=O)Nc1cc(Cl)ccc1C#N,"28.2 µM [rising, single point]","25.1 µM [rising, single point]"
O=C(Nc1nc2n(n1)C(c1ccc(Cl)cc1)CC(c1ccc(Cl)cc1)N2)c1ccco1 (stereo unspecified),"35.5 µM [rising, single point]",
CC(=O)Nc1ccc(-c2csc(NC(=O)C3CCN(S(=O)(=O)c4cccs4)CC3)n2)cc1,,"0.00501 µM [falling, full curve, poor fit]"
CCC(C)NC(=O)c1ccc2nc(CCc3ccccc3)oc2c1 (stereo unspecified),"0.00316 µM [falling, full curve, poor fit]",
CC(C)COc1ccc(C(=O)Nc2ccc(SC(F)F)cc2)cc1,"5.62 µM [rising, partial curve]",
COc1ccc(C2=Nn3c(nnc3C3CCCCC3)SC2)cc1OC,"31.6 µM [rising, single point]",
CCOc1ccc(S(=O)(=O)c2c(C(=O)c3ccc(C)cc3)cnc3cc4c(cc23)OCCO4)cc1,"3.98 µM [rising, single point]",
Cc1ccc(SCC(=O)NC(=O)NCc2ccccc2)c(C)c1,"35.5 µM [rising, single point]","31.6 µM [rising, single point]"
CCCCc1ccc(S(=O)(=O)N2CCN(C(=O)c3ccco3)CC2)cc1,"20 µM [rising, partial curve]","12.6 µM [rising, single point]"
CCOC(=O)C(=O)c1csc(NC(=O)CCSc2ccc(C)cc2)n1,,"0.01 µM [rising, partial curve, poor fit]"
Cc1cc2cc(CNC(=S)Nc3ccc(OC(F)(F)F)cc3)ccc2n1C,"31.6 µM [rising, single point]","31.6 µM [rising, single point]"
CC(C)CCNC(=O)C(c1ccc(O)cc1)N(Cc1cccs1)C(=O)C1COc2ccccc2O1 (stereo unspecified),"31.6 µM [falling, single point]","35.5 µM [falling, single point]"
COC(=O)c1ccc2c(c1)NC(=O)C(N1CCCCC1)S2 (stereo unspecified),"20 µM [rising, partial curve]","8.91 µM [rising, partial curve, poor fit]"
CCn1c(CN2CCCCCC2=O)nnc1SCc1cnc(-c2ccccc2)s1,"17.8 µM [rising, single point]",
Cc1cc(/C=N/n2c(COc3ccccc3C)nc3ccccc3c2=O)c(O)c([N+](=O)[O-])c1,,"0.00447 µM [falling, full curve, poor fit]"
Cc1ccc(NS(=O)(=O)c2cc3[nH]c(=O)c(=O)[nH]c3cc2C)cc1N(C)C,"0.158 µM [rising, full curve, poor fit]",
Cc1ccc(C)c(NC(=O)CSc2nnc(-c3cc4occc4n3C)n2-c2ccccc2C)c1,,"0.0891 µM [falling, full curve, poor fit]"
CCCCn1c(SCC(=O)Nc2ccc(OCC)cc2)nc2ccsc2c1=O,"2.82 µM [falling, full curve, poor fit]","5.62 µM [falling, single point]"

Structure (SMILES),AC50 [1],AC50 [2]
CCc1ccc(NC(=O)CN2CCN(C3CCCCC3)C(=O)C2=O)cc1,"10 µM [rising, partial curve]",
Cc1ccc(Oc2cc(NC(=O)CCCn3nc(C)c([N+](=O)[O-])c3C)cc([N+](=O)[O-])c2)cc1,"20 µM [rising, single point]",
C=CCN1C(=O)CSC1=Nc1ccc(O)cc1,"12.6 µM [rising, single point]",
CCc1nc2ccc(C(=O)NCc3ccc(N(C)C)cc3)cc2nc1CC,,"6.31 µM [rising, partial curve, poor fit]"
CCc1cc(C(=O)NNC(=S)Nc2cc(C)ccc2C)cs1,"35.5 µM [rising, single point]",
O=C1S/C(=C/c2ccccc2)C(=O)N1CC(O)Cn1c2ccccc2c2ccccc21 (stereo unspecified),"10 µM [rising, partial curve, poor fit]",
CN(C)CCNC(=O)CN1N=C(c2ccccc2)CCC1=O,"0.00398 µM [rising, full curve, poor fit]","4.47 µM [rising, partial curve, poor fit]"
OC(COCC(F)(F)C(F)(F)C(F)(F)C(F)F)Cn1c2ccc(Cl)cc2c2cc(Cl)ccc21 (stereo unspecified),,"20 µM [falling, single point]"
O=C(O)c1ccccn1,"35.5 µM [falling, single point]",
Cc1ccc(-c2csc(NC(=O)CSc3nc4ccccc4[nH]3)n2)cc1,"22.4 µM [rising, single point]",
Cc1c(N=CN2CCOCC2)c(=O)n(C)c(=O)n1C,"0.0126 µM [rising, full curve, poor fit]","0.0112 µM [rising, full curve, poor fit]"
Cc1sc2ncnc(N3CCN(c4ncccn4)CC3)c2c1C,"20 µM [rising, single point]",
CNC(=S)N/N=C/c1cn(CCOc2ccc(OC)cc2)c2ccccc12,"2.24 µM [rising, partial curve]",
O/N=C/c1cc(Cl)ccc1OCc1cccc2ccccc12,"15.8 µM [falling, partial curve]","17.8 µM [falling, partial curve]"
c1nnc(-c2ccc3c(c2)OCO3)o1,"1.26 µM [rising, single point]","1.26 µM [rising, partial curve, poor fit]"
CC(C)C(c1nnnn1C1CCCC1)N1CCN(c2ccccc2F)CC1 (stereo unspecified),,"11.2 µM [falling, partial curve, poor fit]"
Cc1cc(Br)c(S(=O)(=O)NCCN2CCOCC2)cc1C,,"35.5 µM [rising, single point]"
COc1ccccc1OCCn1c(C(C)O)nc2ccccc21 (stereo unspecified),"10 µM [rising, partial curve]","10 µM [rising, partial curve, poor fit]"
Cc1nn(-c2ccc(N3CCOCC3)nn2)c(C)c1CCC(=O)NCc1ccccc1,,"0.02 µM [falling, full curve, poor fit]"

# As entered above.
# AC50 [1], `COc1ccc(OCC(=O)OCc2cc(=O)n3nc(C4CC4)sc3n2)cc1` is entered as 0.282 µM [falling, full curve, poor fit]
# AC50 [2], `CC(C)CCNC(=O)C(c1ccc(O)cc1)N(Cc1cccs1)C(=O)C1COc2ccccc2O1` (stereo unspecified) is entered as 35.5 µM [falling, single point]

# Next entries.

Structure (SMILES),AC50 [1],AC50 [2]
Cc1cc(C)c(NC(=O)CSc2n[nH]c(-c3ccccc3Cl)n2)c(C)c1,,"0.708 µM [rising, single point]"
COc1cccc(OC)c1C(=O)NNC(=O)c1ccccc1-n1cccc1,,"0.0794 µM [rising, full curve, poor fit]"
Cc1[nH][nH]c(=O)c1C(c1c(C)[nH][nH]c1=O)c1cn(Cc2ccc(Cl)c(Cl)c2)c2ccccc12,"11.2 µM [rising, partial curve]","35.5 µM [rising, single point]"
Nc1nc2ccc(C(=O)Nc3ccccc3)cc2s1,"2 µM [rising, full curve, poor fit]",
Cc1ccc(C2=CC(c3ccccc3C)n3c(nc4ccccc43)N2)cc1 (stereo unspecified),"25.1 µM [rising, partial curve]","0.0141 µM [rising, full curve, poor fit]"
Cc1ccc(NC(=O)CS(=O)CC(=O)N(CC(=O)NC2CCCC2)c2cccc(C)c2C)cc1 (stereo unspecified),,"14.1 µM [rising, single point]"
COc1ccc(OC)c(C(C)NC(=O)Nc2cccc(C(C)=O)c2)c1 (stereo unspecified),"20 µM [falling, partial curve]","12.6 µM [falling, partial curve, poor fit]"
COc1ccccc1NC(=O)Cn1cnc2c(cnn2-c2ccccc2)c1=O,"12.6 µM [rising, partial curve]","5.62 µM [rising, partial curve]"
O=C(NNC(=S)Nc1ccc(Br)cc1Cl)c1ccco1,"35.5 µM [rising, single point]",
N#CC(c1ccc(=O)[nH]n1)c1ccc(Cl)cc1Cl (stereo unspecified),"2.51 µM [falling, single point]",
O=C(O)c1cccc(N/N=C/c2sc(N3CCOCC3)nc2-c2ccccc2)c1,"7.94 µM [falling, partial curve]",
O=C(CCN1CCN(c2ccc(F)cc2)CC1)Nc1ccc(F)cc1,"31.6 µM [rising, single point]","22.4 µM [rising, single point]"
Cc1ccc(-c2nn(C)c(=O)c3ccccc23)cc1CNC(=O)CSc1nc2ccccc2o1,"12.6 µM [rising, single point]",
CCCCNCc1cc(OC)c(OCC(N)=O)cc1Br,"25.1 µM [falling, partial curve, poor fit]",
N=C(N)c1ccc(/C=C/c2ccc(C(=N)N)cc2O)cc1,,"20 µM [falling, single point]"
CC(CC(=O)O)CC(=O)Nc1cc([N+](=O)[O-])ccc1O (stereo unspecified),"5.01 µM [falling, full curve, poor fit]","1.78 µM [falling, full curve, poor fit]"
CSc1c(-c2ccccn2)c(N)nn1C(=O)C1CC1,"0.0355 µM [falling, full curve, poor fit]",
O=C(Cc1ccc(-c2ccccc2)cc1)NCc1cccnc1,"3.55 µM [falling, single point]",
Cc1ccc(S(=O)(=O)NCc2ccc(C(=O)N3CCN(c4ccccn4)CC3)cc2)cc1,"20 µM [rising, partial curve]","11.2 µM [rising, partial curve]"
